Source: the supplement of paper PMC5949888
± gives the standard deviation of the averaged measurements. Most values lie at the floor of the assay. Slopes are relative: functional sequences can read slightly below zero.

System: Saccharomyces cerevisiae PS128 hsf1 delta, HSF1(1-493) fusion
Assay: growth estimate (transactivation domain function in HSF1 fusion, heat-shock survival) (a.u. (slope of normalised read count over time)); higher = stronger growth at 37°C, i.e. more transactivation activity
Details: library: random library
Method: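 Random 60-nt DNA library encoding peptides of up to 20 aa, fused to the C-terminus of yeast HSF1 residues 1-493 (C-terminal TAD deleted) and expressed from the native HSF1 promoter on a CEN plasmid in hsf1-deleted S. cerevisiae PS128. Cells were selected at 37°C on -trp 5-FOA plates for 0, 2, 4, 6 and 8 days and amplicons were sequenced. Growth estimate is the slope of a robust linear fit of total-sum-normalised read counts (normalised to the first time point) over time, using at least 2 replicates. Sequences are classed functional (TAD activity) above a threshold of -0.13, set from stop-codon control sequences.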

| Substance | growth estimate |
| --- | --- |
| LQRQEGSSRVDIA | < -0.253 |
| VKVPASHREISRRTSLRSRV | < -0.25 |
| HTLLGRRSAGRSVSSSIIVY | < -0.25 |
| LNDPRGTLSF | < -0.25 |
| HFVSC | < -0.25 |
| CNIRLMEEYKKSIVRGLKAS | < -0.25 |
| SAPAEHLGPLKAVFYRVPWQ | < -0.25 |
| VNAVLSSVTL | < -0.25 |
| RPTEHTWVRTLSCT | < -0.25 |
| FCRHHWGVP | < -0.25 |
| RELL | < -0.25 |
| SSFRRPGIDRHATYTKGRLP | < -0.25 |
| KRQSSTLTEVNVIHG | < -0.25 |
| VCNGETRVLLRVAS | < -0.25 |
| PVTQWITTQADECLLARPLW | < -0.25 |
| CAARSVGETQGRL | < -0.25 |
| GYSNCG | < -0.25 |
| DMTSDPTALPTT | < -0.25 |
| NQSFSNVVGAPAVCR | < -0.25 |
| FRWGHLTGS | < -0.25 |
| GMHPCSVFACSMLYSPPGME | < -0.25 |
| TPSSVIAFLYPLSELR | < -0.25 |
| GGRRIYGWGRLGSKSTASPH | < -0.25 |
| PMAVAGRSA | < -0.25 |

| Substance | growth estimate |
| --- | --- |
| VAKRIGRRGNRDGSWVGLRR | < -0.25 |
| DSCYWATLASIGDLSDSIPV | < -0.25 |
| HGGTVERGFAAYDL | < -0.25 |
| ALTQLRAQNNILGTGNPRDG | < -0.25 |
| FPRLPIAGAAPMVGGSVGQS | < -0.25 |
| GIGTEQLMEVAGA | < -0.25 |
| SMIVVRLRESVIEQSQRRFR | < -0.25 |
| YVHDAVPRTTISLAAHINVV | < -0.25 |
| MSIRHPTLAHPGSDNLRRSP | < -0.25 |
| PSWLRSPPDGEGRTRGQTLC | < -0.25 |
| SLWGRISRSYGLPTTIAGIR | < -0.25 |
| LTVPGMGTLEMLSLTLSAIA | -0.241 |
| LLDGKGALRQCARRQSTYGA | < -0.25 |
| DVTGKYRSWHRIIRHMSRWG | < -0.25 |
| SHWGLMGVSDASAKVDTSRS | < -0.25 |
| VAFAGSEPS | -0.243 |
| ISDSMPPCGQLWTSLIHRRG | < -0.25 |
| LLKGVSCAATCLCGGPFRHR | < -0.25 |
| KVTPELSAVVAGPSDKALRL | < -0.25 |
| ERKMMLSDPAAVSLERRCLG | < -0.25 |
| IFACGTAGPGRARAHSGCVR | < -0.25 |
| VLLLTSCARNGYQCLDHSSG | < -0.25 |
| RRYYT | < -0.25 |
| PASH | -0.245 |

| Substance | growth estimate |
| --- | --- |
| QAVQIFGTTS | < -0.25 |
| ARDRLFID | < -0.25 |
| LTLLVIHEGIKPGFASLVRF | < -0.25 |
| WRRKFICVRQEKTLAKCQGL | < -0.25 |
| AQEVASRSRVLMCRIGTCLA | < -0.25 |
| SNVRACAIKPAGSCDPPANT | < -0.25 |
| QGESHDA | < -0.25 |
| SCMASYYSP | < -0.25 |
| RAQACMLITQVFVAYVRPTS | < -0.25 |
| WVPLTPVDPIHTIDGLCR | < -0.25 |
| LKKSAGERVCIFCCAQTLRV | < -0.25 |
| SRRCRVNVL | < -0.25 |
| ESPNGVPFPGSDKVGSEEVR | < -0.25 |
| VEYWFPNSCWDGCIGRGA | -0.163 |
| LVINSFPGLSEQKTALANHL | < -0.25 |
| CCELISPMLVFAPGGCEGKT | < -0.25 |
| WKMLPG | < -0.25 |
| LVSGNAWAAVNKRPFLQRGA | < -0.25 |
| IREAS | < -0.25 |
| GAVIDLLQPGGNATVALEIF | < -0.25 |
| PDKRSLSSCGYLFGYGGSLD | < -0.25 |
| GRTMPEASYRNSSPTYVSSM | < -0.25 |
| AIDFV | < -0.25 |
| FIKVAGGAVVGLSRRSAELH | < -0.25 |

| Substance | growth estimate |
| --- | --- |
| VVRFCIREAPPPW | < -0.25 |
| RTKCLV | < -0.25 |
| ALNHWYLWAGGVRAGFQRDR | < -0.25 |
| QWLGAAG | < -0.25 |
| SKEA | < -0.25 |
| LCFHNTSIYVAR | -0.245 |
| TTGCGMQNTPVCIEPRYVVG | < -0.25 |
| RRRGINAESPRAFSQ | < -0.25 |
| GRCVYFQSVGYRSWGKGTIQ | < -0.25 |
| TFMSPEGPPVVGPSSTVIKS | < -0.25 |
| EERGRL | < -0.25 |
| KKGVRWRHY | < -0.25 |
| FDD | < -0.25 |
| VGRPSWPGKKSPFRRYSPPC | < -0.25 |
| GLFDKGPVVLGP | < -0.25 |
| PEALTGSESWV | -0.246 |
| VRRPAH | < -0.25 |
| QRAIYDEGVGLKSSPGVGSG | < -0.25 |
| TICGRGDWYDGVAAHCLRAT | < -0.25 |
| RPVRRYVPDREGWFVMQETD | < -0.25 |
| RIPGGNPRLLYEFNRVLDLF | < -0.25 |
| EIVVQFSAR | < -0.25 |
| RNRLPVG | < -0.25 |
| LLGKVTYSQKVCTKSPGRLT | < -0.25 |

An excerpt of these results, field by field.
ERKMMLSDPAAVSLERRCLG
  growth estimate: < -0.25
IFACGTAGPGRARAHSGCVR
  growth estimate: < -0.25

(continued)

| Substance | growth estimate |
| --- | --- |
| VVWKMEGRRGR | < -0.25 |
| LANTVEA | < -0.25 |
| LERYVLGEDKCIPEPDYV | < -0.25 |
| PAGE | < -0.25 |
| TFGVTV | -0.246 |
| RDSRKVSRSWNNRTEAKYD | < -0.25 |
| CLGLLWYSATAIR | < -0.25 |
| WKTWCCLRQRKSV | < -0.25 |
| APAVSQRAWSL | < -0.25 |
| VGSGVRWDLVLVRSDSICHW | < -0.25 |
| WHAFRWSGGNG | -0.208 |
| FNLRLRLV | < -0.25 |
| TAWYPTP | < -0.25 |
| KYASAWGTGYSVRSP | < -0.25 |
| LCKPCGHLLVSQV | < -0.25 |
| HIASAVLKRTCTAARSRNAS | < -0.25 |
| ATLMERLRNRIASIGIMTQA | < -0.25 |
| SIMWPSSLQTRDNLRISRFS | < -0.25 |
| DGVSTWYG | < -0.25 |
| SLQPVFTGT | < -0.25 |
| LCRSGIYGSRLCTSLSSQMP | < -0.25 |
| TFRRSVGPKTSMPNTFQLAV | < -0.25 |
| AMQL | < -0.25 |
| IAQSK | < -0.25 |

An excerpt of these results, with bars between the fields:
Substance | growth estimate
SLQPVFTGT | < -0.25
LCRSGIYGSRLCTSLSSQMP | < -0.25
TFRRSVGPKTSMPNTFQLAV | < -0.25

The list goes on.

| Substance | growth estimate |
| --- | --- |
| DSRGAPHGGSLITPFGLGVE | -0.245 |
| TFGPRKL | < -0.25 |
| IELAAIATCSRRQSEG | < -0.25 |
| SPSLGLQAVAFFSSETGNAL | < -0.25 |
| LVVRSCLCHYPC | < -0.25 |
| CSS | -0.241 ± 0.012 |
| FSP | < -0.25 |
| LLKRKRKITPGIL | < -0.25 |
| LDPPWPRNRAHPGFP | < -0.25 |
| RGLRGFLWNARNWASFCLTA | < -0.25 |
| DKLQRDYAGEGYGVGIALIG | < -0.25 |
| QTEQDIWPLYRQCSLTVLLA | < -0.25 |
| IKMV | < -0.25 |
| CVLGGLNIVLVYDEGTSQNP | < -0.25 |
| RKPA | < -0.25 |
| NIERS | < -0.25 |
| FAIGAQLSDLGVRTGRHLSS | < -0.25 |
| RTADPYTILQLEVGRPFCCQ | -0.245 |
| EIIVGIVRPVEATSFRHRDA | < -0.25 |
| VLGIPPGMFFAATIILAACY | -0.246 |
| ALA | < -0.25 |
| MSVYAGVRCIKTSNSPGSLR | < -0.25 |
| KTAFS | < -0.25 |
| FRIRSCVDGYGVDIAMSRKV | < -0.25 |

Shown field by field: part of the list above
PSWLRSPPDGEGRTRGQTLC
  growth estimate = < -0.25
SLWGRISRSYGLPTTIAGIR
  growth estimate = < -0.25

Later entries

| Substance | growth estimate |
| --- | --- |
| AVRRPTLSGRGLPANEWNIE | < -0.25 |
| LRISVAEGHDASETREDICQ | < -0.25 |
| YLPHEEGVLDD | < -0.25 |
| PPSLVGLVWVPDRSININRR | < -0.25 |
| LNSSYPGRSGAE | < -0.25 |
| SPFEHPFVLRGRT | < -0.25 |
| HEGIRCHEDVLSPCMSTHQL | < -0.25 |
| PSREP | < -0.25 |
| LVIRSMVIFMNRVASQGEKR | < -0.25 |
| WKGVVSEPGSQSLPVAGTAE | < -0.25 |
| IYKRHDSLHMVQNLGRKPRG | < -0.25 |
| CVSSANARPPRYNNAP | < -0.25 |
| VPKHRVG | < -0.25 |
| RVQAMCRGSCIVPALHCPPF | < -0.25 |
| CVGETRTGSKVATVVGITGF | < -0.25 |
| WWRAHLCYLMAFARS | < -0.25 |
| RSRRGNPFTNIR | < -0.25 |
| ADAHPVPCYKTSLGRNKASA | < -0.25 |
| SNARKLGAKISLTGLAGPHT | < -0.25 |
| KGIRVCIMTYLNCKVRMRPR | < -0.25 |
| SKTGSRSS | < -0.25 |
| GRTEWRTAPVSLTERSGTQI | < -0.25 |
| RVVLDYRHCSYLVNIPEGNS | < -0.25 |
| TRKAPYIRLAGRSVRLERSC | < -0.25 |

| Substance | growth estimate |
| --- | --- |
| VRVQG | < -0.25 |
| TTGS | -0.241 |
| CAASSEPTTVRPM | < -0.25 |
| SVSHRTMKSQECRARLVMF | < -0.25 |
| AVRRGG | < -0.25 |
| WDRSPRATVMTS | < -0.25 |
| LPGLLTSCPLTQCAGWNFTS | < -0.25 |
| IRWTIGGTNRANSRGCAQLL | < -0.25 |
| RHAWMLLSAEHFTSIATCTV | < -0.25 |
| REAGEPWSGDLSFHTQ | < -0.25 |
| ADKILNPRAQRNPIAEA | < -0.25 |
| CIEPSARSVCANFVVVYRVA | < -0.25 |
| QCKSVPWFPAGRGALWAVTR | < -0.25 |
| EGRESVAHEVGWDVYCW | < -0.25 |
| RMMNV | < -0.25 |
| SQGVHPGIMRPTHMTKLGLG | -0.248 |
| GFRCGQLVRLRIRGHVVRPS | < -0.25 |
| RNRTTTRIRGAKRL | < -0.25 |
| YDKVNS | -0.246 |
| RTEFSSACSIRYQR | < -0.25 |
| KSGQLSILSWFTACVKPSQS | < -0.25 |
